Reference: paper PMC10167121, “Completing the TRB family: newly characterized members show ancient evolutionary origins and distinct localization, yet similar interactions”
No constants are given. Whether binding was seen depends on the method and setting. A result given as binding can be weak or reduced; the word gives no strength. For some of these results: Where a sequence is shown, tags or fusion partners need not be part of it. For some of these results: Binding seen in cells or lysates may run through a third protein.

Amino acid sequences for entries named in this document (tags omitted). A change or cut given only in a name is not applied to a line headed by its entry.
UniProt F4I7L1: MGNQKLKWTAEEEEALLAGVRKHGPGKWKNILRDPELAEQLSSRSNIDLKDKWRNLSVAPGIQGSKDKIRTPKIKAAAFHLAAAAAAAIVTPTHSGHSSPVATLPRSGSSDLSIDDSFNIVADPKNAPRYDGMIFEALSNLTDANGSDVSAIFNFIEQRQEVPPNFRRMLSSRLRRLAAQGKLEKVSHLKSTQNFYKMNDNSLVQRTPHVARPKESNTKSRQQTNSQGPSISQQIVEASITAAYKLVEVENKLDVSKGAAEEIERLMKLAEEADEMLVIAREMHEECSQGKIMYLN
UniProt Q9M9N3: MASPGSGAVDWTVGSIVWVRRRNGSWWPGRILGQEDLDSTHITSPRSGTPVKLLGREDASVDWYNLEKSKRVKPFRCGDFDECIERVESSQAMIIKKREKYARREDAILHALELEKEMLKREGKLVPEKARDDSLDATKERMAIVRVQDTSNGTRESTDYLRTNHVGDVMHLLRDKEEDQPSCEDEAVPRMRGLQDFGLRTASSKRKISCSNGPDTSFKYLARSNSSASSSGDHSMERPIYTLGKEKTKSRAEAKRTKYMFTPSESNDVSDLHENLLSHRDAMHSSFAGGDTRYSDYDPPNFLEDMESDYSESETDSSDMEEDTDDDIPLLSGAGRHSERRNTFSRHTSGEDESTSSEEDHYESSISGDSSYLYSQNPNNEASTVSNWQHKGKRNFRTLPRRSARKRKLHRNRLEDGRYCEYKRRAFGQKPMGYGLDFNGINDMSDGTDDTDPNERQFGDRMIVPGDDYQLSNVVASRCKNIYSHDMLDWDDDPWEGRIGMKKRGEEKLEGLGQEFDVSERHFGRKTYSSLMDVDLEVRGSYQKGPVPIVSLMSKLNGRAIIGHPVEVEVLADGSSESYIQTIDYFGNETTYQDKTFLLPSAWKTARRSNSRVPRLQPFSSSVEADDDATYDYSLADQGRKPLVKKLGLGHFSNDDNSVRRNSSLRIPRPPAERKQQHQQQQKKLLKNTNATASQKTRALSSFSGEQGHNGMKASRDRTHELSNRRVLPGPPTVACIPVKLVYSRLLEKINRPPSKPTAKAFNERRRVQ
UniProt Q9FMR9: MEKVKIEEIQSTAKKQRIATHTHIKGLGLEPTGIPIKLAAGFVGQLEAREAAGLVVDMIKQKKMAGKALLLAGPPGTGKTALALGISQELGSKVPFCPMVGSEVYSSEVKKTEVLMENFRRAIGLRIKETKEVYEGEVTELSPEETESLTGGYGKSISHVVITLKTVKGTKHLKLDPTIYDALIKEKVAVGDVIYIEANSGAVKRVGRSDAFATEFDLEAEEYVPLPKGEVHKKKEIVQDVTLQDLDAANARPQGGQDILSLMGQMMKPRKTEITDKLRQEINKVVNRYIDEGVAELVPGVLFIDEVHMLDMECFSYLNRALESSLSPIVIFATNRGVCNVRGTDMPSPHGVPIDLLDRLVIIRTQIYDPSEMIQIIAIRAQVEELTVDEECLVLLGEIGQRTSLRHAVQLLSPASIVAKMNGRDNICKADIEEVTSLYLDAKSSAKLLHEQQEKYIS

T1: Telomere repeat binding protein 1 (TRB1), yeast two-hybrid fusion (A. thaliana) (UniProt Q8VWK4)
T1 sequence: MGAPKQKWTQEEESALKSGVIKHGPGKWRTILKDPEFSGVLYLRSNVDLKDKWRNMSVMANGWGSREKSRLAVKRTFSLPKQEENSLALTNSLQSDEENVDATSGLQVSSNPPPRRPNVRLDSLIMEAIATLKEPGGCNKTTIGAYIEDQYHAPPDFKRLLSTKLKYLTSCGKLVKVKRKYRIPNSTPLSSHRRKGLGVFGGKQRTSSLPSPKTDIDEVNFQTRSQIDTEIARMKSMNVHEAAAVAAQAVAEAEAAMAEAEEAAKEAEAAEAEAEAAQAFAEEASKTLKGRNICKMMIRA

T2: Telomere repeat binding protein 2 (TRB2), yeast two-hybrid fusion (A. thaliana) (UniProt Q9FJW5)
T2 sequence: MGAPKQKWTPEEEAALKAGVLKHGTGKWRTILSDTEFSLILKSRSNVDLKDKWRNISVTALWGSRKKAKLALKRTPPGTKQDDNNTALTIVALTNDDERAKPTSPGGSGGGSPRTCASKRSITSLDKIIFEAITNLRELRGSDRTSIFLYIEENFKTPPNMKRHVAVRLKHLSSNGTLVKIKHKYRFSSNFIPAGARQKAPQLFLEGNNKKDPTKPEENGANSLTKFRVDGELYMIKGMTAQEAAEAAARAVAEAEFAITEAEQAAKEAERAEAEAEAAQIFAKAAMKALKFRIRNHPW

T3: Telomere repeat binding protein 3 (TRB3), yeast two-hybrid fusion (A. thaliana) (UniProt Q9M2X3)
T3 sequence: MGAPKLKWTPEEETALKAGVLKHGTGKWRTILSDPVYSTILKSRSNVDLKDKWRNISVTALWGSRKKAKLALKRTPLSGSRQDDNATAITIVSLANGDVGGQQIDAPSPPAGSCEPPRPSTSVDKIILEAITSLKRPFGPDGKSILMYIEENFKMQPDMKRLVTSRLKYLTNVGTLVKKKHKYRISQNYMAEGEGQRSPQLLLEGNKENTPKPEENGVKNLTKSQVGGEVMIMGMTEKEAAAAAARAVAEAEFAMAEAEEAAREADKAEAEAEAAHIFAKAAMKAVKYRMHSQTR


Tests used:
[1] = molecular target: T1, Telomere repeat binding protein 1 (TRB1), yeast two-hybrid fusion (A. thaliana); assay: two-hybrid; Matchmaker GAL4-based system, S. cerevisiae PJ69-4a; growth on SD -Leu -Trp -His (with or without 1 mM or 3 mM 3-AT) or SD -Leu -Trp -Ade at 30 °C; empty vector as negative control
[2] = molecular target: T2, Telomere repeat binding protein 2 (TRB2), yeast two-hybrid fusion (A. thaliana); assay: as above
[3] = molecular target: T3, Telomere repeat binding protein 3 (TRB3), yeast two-hybrid fusion (A. thaliana); assay: as above
[4] = molecular target: Telomere repeat binding protein 4 (TRB4), yeast two-hybrid fusion (A. thaliana) (UniProt F4I7L1); assay: as above
[5] = molecular target: TRB5 (myc-tag), in vitro translated (A. thaliana); assay: co-IP; in vitro translated proteins (TNT system): 35S-Met-labelled HA-tagged VRN2, EMF2 or POT1a mixed with myc-tagged TRB4 or TRB5, anti-myc antibody and Protein G magnetic particles; input, unbound and bound fractions on 10% SDS-PAGE
[6] = molecular target: TRB4 (myc-tag), in vitro translated (A. thaliana) (UniProt F4I7L1); assay: as above

| binding [1] | binding [2] | binding [3] | binding [4] | Molecule | also measured |
| --- | --- | --- | --- | --- | --- |
| binds | binds | binds |  | Telomere repeat binding protein 5 (TRB5), yeast two-hybrid fusion (A. thaliana) |  |
| binds | binds | binds |  | Telomere repeat binding protein 4 (TRB4), yeast two-hybrid fusion (from UniProt F4I7L1) |  |
|  |  |  | binds | PWO1 full-length, yeast two-hybrid fusion (from UniProt Q9M9N3) |  |
|  |  |  | binds | Recombination UV B-like protein RUVBL1, yeast two-hybrid fusion (from UniProt Q9FMR9) |  |
|  |  |  |  | VRN2 (hemagglutinin tag, 35S-labelled), in vitro translated (protein, UniProt Q8W5B1 1-440, radioactively labelled using 35S-Met) MCRQNCRAKSSPEEVISTDENLLIYCKPVRLYNIFHLRSLGNPSFLPRCLNYKIGAKRKRKSRSTGMVVFNYKDCNNTLQRTEVREDCSCPFCSMLCGSFKGLQFHLNSSHDLFEFEFKLLEEYQTVNVSVKLNSFIFEEEGSDDDKFEPFSLCSKPRKRRQRGGRNNTRRLKVCFLPLDSPSLANGTENGIALLNDGNRGLGYPEATELAGQFEMTSNIPPAIAHSSLDAGAKVILTTEAVVPATKTRKLSAERSEARSHLLLQKRQFYHSHRVQPMALEQVMSDRDSEDEVDDDVADFEDRQMLDDFVDVNKDEKQFMHLWNSFVRKQRVIADGHISWACEVFSRFYEKELHCYSSLFWCWRLFLIKLWNHGLVDSATINNCNTILENCRNTSVTNNNNNSVDHPSDSNTNNNNIVDHPNDIKNKNNVDNKDNNSRDK | binding [5]: binds; binding [6]: binds |
